The target in experiment [1] is T1, ZDHHC18 (human (endogenous in PN12 and MES23 glioma stem cells)) (UniProt Q9NUE0).
T1 sequence: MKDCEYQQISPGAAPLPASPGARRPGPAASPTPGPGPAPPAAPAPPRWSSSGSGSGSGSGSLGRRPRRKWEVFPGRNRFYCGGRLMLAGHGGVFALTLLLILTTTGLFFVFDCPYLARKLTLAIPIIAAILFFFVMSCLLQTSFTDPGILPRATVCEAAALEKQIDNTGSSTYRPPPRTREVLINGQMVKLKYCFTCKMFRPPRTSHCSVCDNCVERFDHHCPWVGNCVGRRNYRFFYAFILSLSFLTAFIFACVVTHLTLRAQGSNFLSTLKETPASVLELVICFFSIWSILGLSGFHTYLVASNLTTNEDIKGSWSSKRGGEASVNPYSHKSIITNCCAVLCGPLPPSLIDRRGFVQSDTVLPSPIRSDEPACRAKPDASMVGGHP
The experiment can be described thus: affinity purification with mass spectrometry; lysates of PN12 and MES23 glioma stem cells; IP with anti-ZDHHC18 and anti-ZDHHC23 antibodies, IP-protein complex analysed by LC/MS-MS; peaks shared by both cell types and both IPs.

Experiment [2] addresses T2, ZDHHC23 (human (endogenous in PN12 and MES23 glioma stem cells)) (UniProt Q8IYP9).
T2 sequence: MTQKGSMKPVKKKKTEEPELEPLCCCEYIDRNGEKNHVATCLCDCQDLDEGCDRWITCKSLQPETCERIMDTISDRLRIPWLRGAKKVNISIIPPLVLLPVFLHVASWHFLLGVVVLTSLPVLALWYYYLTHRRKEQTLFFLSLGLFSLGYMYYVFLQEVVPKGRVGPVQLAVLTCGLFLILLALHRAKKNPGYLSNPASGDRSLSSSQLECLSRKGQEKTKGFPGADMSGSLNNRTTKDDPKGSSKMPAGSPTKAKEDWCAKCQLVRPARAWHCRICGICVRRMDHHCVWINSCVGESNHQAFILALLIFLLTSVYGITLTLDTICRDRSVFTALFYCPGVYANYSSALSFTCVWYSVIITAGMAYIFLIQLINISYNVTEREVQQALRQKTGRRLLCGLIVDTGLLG
The experiment is described as above.

No constants are given. Whether binding was seen depends on the method and setting. In cells and extracts the contact can be indirect. These calls come from enrichment with a bait or labelling near it, and not all partners need be listed.

B1: RNF144A (Ring Finger protein 144A) (protein, UniProt P50876 1-292)
chain: MTTTRYRPTWDLALDPLVSCKLCLGEYPVEQMTTIAQCQCIFCTLCLKQYVELLIKEGLETAISCPDAACPKQGHLQENEIECMVAAEIMQRYKKLQFEREVLFDPCRTWCPASTCQAVCQLQDVGLQTPQPVQCKACRMEFCSTCKASWHPGQGCPETMPITFLPGETSAAFKMEEDDAPIKRCPKCKVYIERDEGCAQMMCKNCKHAFCWYCLESLDDDFLLIHYDKGPCRNKLGHSRASVIWHRTQVVGIFAGFGLLLLVASPFLLLATPFVLCCKCKCSKGDDDPLPT
In the case of B1, the binding entry in experiment [1] and in experiment [2] was “binds” each time.

Source of the values: article PMC6339410.
